± gives the standard deviation of the averaged measurements. The list shows a part of the results.
Assays:
Test in all cases: NP40-soluble protein abundance relative to vehicle (solubility fold change) (ratio); higher = more soluble protein in presence of GTP
CWF19L2 = target: T1, CWF19L2 (UniProt Q2TBE0)
T1 sequence (whole entry): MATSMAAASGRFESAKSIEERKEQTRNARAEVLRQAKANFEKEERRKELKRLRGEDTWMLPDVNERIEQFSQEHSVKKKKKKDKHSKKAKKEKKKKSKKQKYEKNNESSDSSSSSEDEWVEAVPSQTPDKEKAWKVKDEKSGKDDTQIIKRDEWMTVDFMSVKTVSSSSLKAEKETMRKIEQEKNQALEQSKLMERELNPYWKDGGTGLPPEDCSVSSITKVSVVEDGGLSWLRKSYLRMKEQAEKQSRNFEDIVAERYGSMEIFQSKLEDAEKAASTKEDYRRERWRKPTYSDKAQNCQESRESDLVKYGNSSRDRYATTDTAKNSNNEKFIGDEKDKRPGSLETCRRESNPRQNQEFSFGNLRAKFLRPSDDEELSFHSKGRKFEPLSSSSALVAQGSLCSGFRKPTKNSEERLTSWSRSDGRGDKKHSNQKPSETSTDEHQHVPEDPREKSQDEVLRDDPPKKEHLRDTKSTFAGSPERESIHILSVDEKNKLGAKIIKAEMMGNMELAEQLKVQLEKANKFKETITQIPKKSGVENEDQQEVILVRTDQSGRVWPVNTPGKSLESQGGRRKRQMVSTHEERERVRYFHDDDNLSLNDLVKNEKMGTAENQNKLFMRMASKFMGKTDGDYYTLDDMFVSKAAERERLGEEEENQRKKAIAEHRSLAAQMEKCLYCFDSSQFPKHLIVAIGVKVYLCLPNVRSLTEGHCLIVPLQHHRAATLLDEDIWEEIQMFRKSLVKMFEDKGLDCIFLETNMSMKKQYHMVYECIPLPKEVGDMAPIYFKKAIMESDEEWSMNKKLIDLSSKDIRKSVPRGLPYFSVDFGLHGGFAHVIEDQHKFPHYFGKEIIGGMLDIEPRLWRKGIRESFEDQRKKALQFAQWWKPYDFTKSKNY
Method in brief: (§1)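 Values are fold changes against the detergent-processed vehicle, based on vsn-normalised intensities. Jurkat crude lysate was treated at eight concentrations from 0.1 to 10 mM (10 min at room temperature, then 3 min at 37 °C), solubilised with 0.8% NP40 and benzonase, ultracentrifuged and analysed by TMT-labelled LC-MS/MS over three independent experiments.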

LDLRAP1 = target: T2, LDLRAP1 (UniProt Q5SW96)
T2 sequence (whole entry): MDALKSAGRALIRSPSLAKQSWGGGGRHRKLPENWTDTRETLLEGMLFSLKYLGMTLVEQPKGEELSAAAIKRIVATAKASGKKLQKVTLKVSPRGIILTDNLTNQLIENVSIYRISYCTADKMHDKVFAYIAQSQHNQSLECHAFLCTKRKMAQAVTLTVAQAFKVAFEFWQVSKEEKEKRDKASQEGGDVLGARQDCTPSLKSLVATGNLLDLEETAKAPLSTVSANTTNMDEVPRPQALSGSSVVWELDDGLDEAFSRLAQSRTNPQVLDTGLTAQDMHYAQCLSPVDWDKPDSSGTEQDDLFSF
Method in brief: as §1

PSMD6 = target: T3, PSMD6 (UniProt Q15008)
T3 sequence (whole entry): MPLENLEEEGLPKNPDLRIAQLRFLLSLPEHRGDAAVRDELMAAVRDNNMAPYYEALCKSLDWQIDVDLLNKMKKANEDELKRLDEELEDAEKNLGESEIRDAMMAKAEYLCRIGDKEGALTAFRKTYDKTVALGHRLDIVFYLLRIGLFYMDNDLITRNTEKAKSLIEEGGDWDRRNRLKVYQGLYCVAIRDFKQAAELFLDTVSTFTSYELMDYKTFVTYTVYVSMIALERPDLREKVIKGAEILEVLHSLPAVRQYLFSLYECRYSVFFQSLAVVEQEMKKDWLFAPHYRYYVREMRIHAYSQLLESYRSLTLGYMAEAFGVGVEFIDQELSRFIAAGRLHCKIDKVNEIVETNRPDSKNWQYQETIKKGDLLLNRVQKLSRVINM
Method in brief: as §1

[1] = target: T4, Q5T123 and related entries (UniProt Q9H299)
T4 sequence (whole entry): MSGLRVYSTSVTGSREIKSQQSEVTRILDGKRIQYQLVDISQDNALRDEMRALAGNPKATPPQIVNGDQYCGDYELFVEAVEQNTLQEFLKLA
Method in brief: as §1

RABL3 = target: T5, RABL3 (UniProt Q5HYI8)
T5 sequence (whole entry): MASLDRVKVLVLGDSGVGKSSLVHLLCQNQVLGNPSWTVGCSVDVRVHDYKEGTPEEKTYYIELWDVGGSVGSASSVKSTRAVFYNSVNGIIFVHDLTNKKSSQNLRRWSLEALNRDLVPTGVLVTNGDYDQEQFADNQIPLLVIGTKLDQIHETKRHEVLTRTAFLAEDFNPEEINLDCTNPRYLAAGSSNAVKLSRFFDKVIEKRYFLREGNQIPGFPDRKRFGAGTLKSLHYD
Method in brief: as §1

RCN1 = target: T6, RCN1 (UniProt Q15293)
T6 sequence (whole entry): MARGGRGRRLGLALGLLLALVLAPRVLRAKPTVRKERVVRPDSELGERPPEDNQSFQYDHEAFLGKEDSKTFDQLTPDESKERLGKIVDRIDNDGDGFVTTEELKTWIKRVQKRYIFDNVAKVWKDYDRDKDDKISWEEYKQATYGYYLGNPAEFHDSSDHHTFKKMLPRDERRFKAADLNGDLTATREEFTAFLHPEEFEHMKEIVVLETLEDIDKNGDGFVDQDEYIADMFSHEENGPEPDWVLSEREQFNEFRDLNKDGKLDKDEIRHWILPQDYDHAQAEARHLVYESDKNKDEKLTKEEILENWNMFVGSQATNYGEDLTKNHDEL
Method in brief: as §1

TTF1 = target: T7, TTF1 (UniProt Q15361)
T7 sequence (whole entry): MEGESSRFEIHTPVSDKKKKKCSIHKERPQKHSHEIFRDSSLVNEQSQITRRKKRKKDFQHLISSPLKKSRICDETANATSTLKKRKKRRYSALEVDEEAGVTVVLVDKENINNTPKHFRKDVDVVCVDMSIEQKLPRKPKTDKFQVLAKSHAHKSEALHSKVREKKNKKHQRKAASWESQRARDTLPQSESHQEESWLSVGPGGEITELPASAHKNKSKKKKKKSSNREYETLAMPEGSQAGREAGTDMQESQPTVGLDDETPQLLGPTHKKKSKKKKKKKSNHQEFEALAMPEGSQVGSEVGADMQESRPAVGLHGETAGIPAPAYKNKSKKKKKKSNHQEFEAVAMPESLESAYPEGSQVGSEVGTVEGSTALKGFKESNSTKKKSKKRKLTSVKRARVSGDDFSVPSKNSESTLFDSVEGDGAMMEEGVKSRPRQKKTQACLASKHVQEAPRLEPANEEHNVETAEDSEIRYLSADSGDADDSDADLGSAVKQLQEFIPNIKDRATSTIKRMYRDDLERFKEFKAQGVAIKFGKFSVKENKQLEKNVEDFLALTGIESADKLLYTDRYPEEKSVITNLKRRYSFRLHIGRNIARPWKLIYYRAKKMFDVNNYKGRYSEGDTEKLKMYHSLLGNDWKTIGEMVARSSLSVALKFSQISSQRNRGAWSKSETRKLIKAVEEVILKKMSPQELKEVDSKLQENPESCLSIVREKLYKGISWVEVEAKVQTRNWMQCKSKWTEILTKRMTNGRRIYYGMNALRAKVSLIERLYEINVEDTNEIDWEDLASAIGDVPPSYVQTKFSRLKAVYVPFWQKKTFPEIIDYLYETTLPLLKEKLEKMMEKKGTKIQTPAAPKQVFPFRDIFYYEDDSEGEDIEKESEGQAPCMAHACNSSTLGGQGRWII
Method in brief: as §1

Nc1nc2c(ncn2[C@@H]2O[C@H](COP(=O)(O)OP(=O)(O)OP(=O)(O)O)[C@@H](O)[C@H]2O)c(=O)[nH]1 [guanosine triphosphate]
NP40-soluble protein abundance (CWF19L2; concentration: 0.1mM): 0.995 ± 0.02 | NP40-soluble protein abundance (CWF19L2; concentration: 0.5mM): 1.02 ± 0.029 | NP40-soluble protein abundance (CWF19L2; concentration: 1mM): 1.03 ± 0.022 | NP40-soluble protein abundance (CWF19L2; concentration: 2mM): 1.06 ± 0.05 | NP40-soluble protein abundance (CWF19L2; concentration: 4mM): 1.06 ± 0.022 | NP40-soluble protein abundance (CWF19L2; concentration: 6mM): 1.09 ± 0.027 | NP40-soluble protein abundance (CWF19L2; concentration: 8mM): 1.11 ± 0.077 | NP40-soluble protein abundance (CWF19L2; concentration: 10mM): 1.1 ± 0.096 | NP40-soluble protein abundance (LDLRAP1; concentration: 0.1mM): 0.99 ± 0.097 | NP40-soluble protein abundance (LDLRAP1; concentration: 0.5mM): 0.912 ± 0.072 | NP40-soluble protein abundance (LDLRAP1; concentration: 1mM): 0.876 ± 0.1 | NP40-soluble protein abundance (LDLRAP1; concentration: 2mM): 0.798 ± 0.15 | NP40-soluble protein abundance (LDLRAP1; concentration: 4mM): 0.91 ± 0.12 | NP40-soluble protein abundance (LDLRAP1; concentration: 6mM): 0.854 ± 0.15 | NP40-soluble protein abundance (LDLRAP1; concentration: 8mM): 0.925 ± 0.066 | NP40-soluble protein abundance (LDLRAP1; concentration: 10mM): 0.866 ± 0.0087 | NP40-soluble protein abundance (PSMD6; concentration: 0.1mM): 1.01 ± 0.016 | NP40-soluble protein abundance (PSMD6; concentration: 0.5mM): 1.03 ± 0.059 | NP40-soluble protein abundance (PSMD6; concentration: 1mM): 1.02 ± 0.06 | NP40-soluble protein abundance (PSMD6; concentration: 2mM): 1.05 ± 0.11 | NP40-soluble protein abundance (PSMD6; concentration: 4mM): 1.04 ± 0.096 | NP40-soluble protein abundance (PSMD6; concentration: 6mM): 1.04 ± 0.13 | NP40-soluble protein abundance (PSMD6; concentration: 8mM): 1.04 ± 0.12 | NP40-soluble protein abundance (PSMD6; concentration: 10mM): 1 ± 0.12 | NP40-soluble protein abundance ([1]; concentration: 0.1mM): 0.93 ± 0.058 | NP40-soluble protein abundance ([1]; concentration: 0.5mM): 0.968 ± 0.08 | NP40-soluble protein abundance ([1]; concentration: 1mM): 0.903 ± 0.063 | NP40-soluble protein abundance ([1]; concentration: 2mM): 0.896 ± 0.058 | NP40-soluble protein abundance ([1]; concentration: 4mM): 0.869 ± 0.085 | NP40-soluble protein abundance ([1]; concentration: 6mM): 0.914 ± 0.05 | NP40-soluble protein abundance ([1]; concentration: 8mM): 0.924 ± 0.082 | NP40-soluble protein abundance ([1]; concentration: 10mM): 0.946 ± 0.034 | NP40-soluble protein abundance (RABL3; concentration: 0.1mM): 1.01 ± 0.015 | NP40-soluble protein abundance (RABL3; concentration: 0.5mM): 1.04 ± 0.016 | NP40-soluble protein abundance (RABL3; concentration: 1mM): 0.975 ± 0.022 | NP40-soluble protein abundance (RABL3; concentration: 2mM): 0.954 ± 0.026 | NP40-soluble protein abundance (RABL3; concentration: 4mM): 0.9429 ± 0.0067 | NP40-soluble protein abundance (RABL3; concentration: 6mM): 0.985 ± 0.016 | NP40-soluble protein abundance (RABL3; concentration: 8mM): 0.979 ± 0.04 | NP40-soluble protein abundance (RABL3; concentration: 10mM): 0.923 ± 0.011 | NP40-soluble protein abundance (RCN1; concentration: 0.1mM): 0.906 ± 0.014 | NP40-soluble protein abundance (RCN1; concentration: 0.5mM): 0.882 ± 0.023 | NP40-soluble protein abundance (RCN1; concentration: 1mM): 0.954 ± 0.033 | NP40-soluble protein abundance (RCN1; concentration: 2mM): 0.927 ± 0.063 | NP40-soluble protein abundance (RCN1; concentration: 4mM): 0.909 ± 0.044 | NP40-soluble protein abundance (RCN1; concentration: 6mM): 0.921 ± 0.051 | NP40-soluble protein abundance (RCN1; concentration: 8mM): 0.895 ± 0.067 | NP40-soluble protein abundance (RCN1; concentration: 10mM): 0.908 ± 0.028 | NP40-soluble protein abundance (TTF1; concentration: 0.1mM): 1.12 ± 0.033 | NP40-soluble protein abundance (TTF1; concentration: 0.5mM): 1.06 ± 0.084 | NP40-soluble protein abundance (TTF1; concentration: 1mM): 1.09 ± 0.015 | NP40-soluble protein abundance (TTF1; concentration: 2mM): 1.08 ± 0.045 | NP40-soluble protein abundance (TTF1; concentration: 4mM): 1.09 ± 0.075 | NP40-soluble protein abundance (TTF1; concentration: 6mM): 1.03 ± 0.019 | NP40-soluble protein abundance (TTF1; concentration: 8mM): 1.02 ± 0.084 | NP40-soluble protein abundance (TTF1; concentration: 10mM): 1.01 ± 0.068

Source: the supplement of paper PMC6411743
